In paper doi:10.1101/2023.10.27.564116:
Results are given in words; binding and its absence hold for the method and conditions named. Binding seen in cells or lysates may run through a third protein. Here binding means that the protein was enriched with, or labelled near, the bait; the list need not be complete.

Chains of the proteins cited; added tags and fusions are not shown. Lines headed by an entry give the natural chain unless they say otherwise; changes in a name come on top.
UniProt Q7ZYC1: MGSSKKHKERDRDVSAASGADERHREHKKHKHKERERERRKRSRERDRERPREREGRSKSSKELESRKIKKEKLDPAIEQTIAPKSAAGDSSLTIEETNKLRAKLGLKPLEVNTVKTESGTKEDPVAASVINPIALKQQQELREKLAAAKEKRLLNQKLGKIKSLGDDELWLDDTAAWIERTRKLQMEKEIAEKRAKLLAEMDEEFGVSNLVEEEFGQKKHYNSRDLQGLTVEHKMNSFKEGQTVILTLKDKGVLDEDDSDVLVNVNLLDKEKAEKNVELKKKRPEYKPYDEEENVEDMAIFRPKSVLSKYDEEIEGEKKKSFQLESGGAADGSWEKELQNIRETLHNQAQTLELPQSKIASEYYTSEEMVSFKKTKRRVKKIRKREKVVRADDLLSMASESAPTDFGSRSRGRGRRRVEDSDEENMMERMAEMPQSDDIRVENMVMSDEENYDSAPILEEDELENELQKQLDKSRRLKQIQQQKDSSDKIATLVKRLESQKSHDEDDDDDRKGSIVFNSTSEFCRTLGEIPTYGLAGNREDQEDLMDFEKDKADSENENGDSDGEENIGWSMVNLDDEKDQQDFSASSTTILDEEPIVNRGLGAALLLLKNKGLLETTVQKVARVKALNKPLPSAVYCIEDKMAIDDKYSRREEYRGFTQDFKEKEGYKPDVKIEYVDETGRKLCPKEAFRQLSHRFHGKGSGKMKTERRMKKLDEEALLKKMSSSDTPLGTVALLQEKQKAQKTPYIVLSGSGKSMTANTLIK
UniProt P70039: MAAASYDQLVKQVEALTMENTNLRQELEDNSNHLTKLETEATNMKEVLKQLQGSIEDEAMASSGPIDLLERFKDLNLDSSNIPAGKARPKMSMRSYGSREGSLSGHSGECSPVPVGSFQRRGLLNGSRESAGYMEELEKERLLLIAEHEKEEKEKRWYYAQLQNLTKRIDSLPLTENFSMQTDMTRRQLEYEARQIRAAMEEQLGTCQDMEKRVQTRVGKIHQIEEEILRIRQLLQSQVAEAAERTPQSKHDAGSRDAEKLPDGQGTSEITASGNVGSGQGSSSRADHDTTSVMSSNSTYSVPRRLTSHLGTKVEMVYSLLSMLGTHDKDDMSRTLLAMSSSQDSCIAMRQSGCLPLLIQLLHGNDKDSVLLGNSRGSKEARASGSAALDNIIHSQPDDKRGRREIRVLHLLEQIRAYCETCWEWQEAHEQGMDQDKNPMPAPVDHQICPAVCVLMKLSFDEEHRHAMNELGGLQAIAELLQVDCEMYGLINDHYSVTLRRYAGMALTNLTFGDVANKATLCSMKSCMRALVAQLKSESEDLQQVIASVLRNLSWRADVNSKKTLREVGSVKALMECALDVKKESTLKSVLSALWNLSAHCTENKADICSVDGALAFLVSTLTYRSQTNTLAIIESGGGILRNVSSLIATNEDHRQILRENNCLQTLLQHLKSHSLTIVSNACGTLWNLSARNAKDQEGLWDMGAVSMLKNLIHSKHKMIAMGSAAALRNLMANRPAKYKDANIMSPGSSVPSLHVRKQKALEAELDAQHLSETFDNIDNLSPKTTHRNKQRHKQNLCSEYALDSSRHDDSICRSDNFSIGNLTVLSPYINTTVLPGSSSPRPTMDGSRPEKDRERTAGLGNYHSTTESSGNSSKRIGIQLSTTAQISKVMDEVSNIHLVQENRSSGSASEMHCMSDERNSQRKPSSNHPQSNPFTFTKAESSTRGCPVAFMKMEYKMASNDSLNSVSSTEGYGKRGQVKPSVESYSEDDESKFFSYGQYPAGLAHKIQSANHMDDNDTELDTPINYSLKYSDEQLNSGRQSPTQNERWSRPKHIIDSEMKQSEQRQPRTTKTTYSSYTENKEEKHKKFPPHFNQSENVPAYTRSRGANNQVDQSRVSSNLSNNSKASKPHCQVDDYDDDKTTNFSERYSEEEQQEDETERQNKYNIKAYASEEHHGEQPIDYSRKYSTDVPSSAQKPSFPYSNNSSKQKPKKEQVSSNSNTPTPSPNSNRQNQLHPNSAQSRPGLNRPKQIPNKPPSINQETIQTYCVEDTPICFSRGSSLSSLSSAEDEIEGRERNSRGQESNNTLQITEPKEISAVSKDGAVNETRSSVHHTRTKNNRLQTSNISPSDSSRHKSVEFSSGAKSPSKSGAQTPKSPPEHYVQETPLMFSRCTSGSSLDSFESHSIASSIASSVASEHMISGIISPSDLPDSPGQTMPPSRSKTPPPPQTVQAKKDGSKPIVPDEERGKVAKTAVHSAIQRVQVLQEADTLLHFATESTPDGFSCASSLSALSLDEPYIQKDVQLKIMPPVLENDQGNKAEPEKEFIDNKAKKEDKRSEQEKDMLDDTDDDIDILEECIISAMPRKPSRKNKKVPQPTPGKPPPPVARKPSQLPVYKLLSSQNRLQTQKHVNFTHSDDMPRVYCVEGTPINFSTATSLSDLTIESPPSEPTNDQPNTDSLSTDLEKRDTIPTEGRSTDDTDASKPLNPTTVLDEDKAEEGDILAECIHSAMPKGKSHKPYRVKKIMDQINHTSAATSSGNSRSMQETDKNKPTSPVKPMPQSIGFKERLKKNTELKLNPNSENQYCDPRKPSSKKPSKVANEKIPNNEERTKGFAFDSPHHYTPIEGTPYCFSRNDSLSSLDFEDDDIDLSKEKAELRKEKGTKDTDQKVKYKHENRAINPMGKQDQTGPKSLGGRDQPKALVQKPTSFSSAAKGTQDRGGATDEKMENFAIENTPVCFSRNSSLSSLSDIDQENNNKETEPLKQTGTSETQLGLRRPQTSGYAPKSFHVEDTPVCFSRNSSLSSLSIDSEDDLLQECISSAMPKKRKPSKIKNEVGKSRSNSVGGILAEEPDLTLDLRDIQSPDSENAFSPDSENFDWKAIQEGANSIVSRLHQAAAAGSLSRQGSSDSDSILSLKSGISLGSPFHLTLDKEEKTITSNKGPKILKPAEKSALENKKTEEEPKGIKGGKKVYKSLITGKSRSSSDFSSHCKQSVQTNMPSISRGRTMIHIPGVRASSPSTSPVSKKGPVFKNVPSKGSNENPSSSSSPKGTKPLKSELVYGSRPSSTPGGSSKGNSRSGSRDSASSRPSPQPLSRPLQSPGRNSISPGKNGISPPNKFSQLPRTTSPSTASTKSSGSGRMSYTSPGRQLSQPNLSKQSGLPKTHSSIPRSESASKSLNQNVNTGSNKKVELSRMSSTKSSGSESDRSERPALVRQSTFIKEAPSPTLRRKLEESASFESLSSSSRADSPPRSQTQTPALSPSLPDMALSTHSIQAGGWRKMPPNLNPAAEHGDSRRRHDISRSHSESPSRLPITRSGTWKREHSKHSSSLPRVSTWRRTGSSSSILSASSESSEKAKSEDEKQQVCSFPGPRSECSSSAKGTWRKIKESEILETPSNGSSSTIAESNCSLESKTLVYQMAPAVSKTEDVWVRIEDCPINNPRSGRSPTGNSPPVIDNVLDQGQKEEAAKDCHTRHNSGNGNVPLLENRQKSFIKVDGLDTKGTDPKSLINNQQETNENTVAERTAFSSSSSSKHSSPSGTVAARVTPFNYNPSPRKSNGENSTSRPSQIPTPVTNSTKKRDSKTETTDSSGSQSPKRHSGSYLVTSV
UniProt Q498G2: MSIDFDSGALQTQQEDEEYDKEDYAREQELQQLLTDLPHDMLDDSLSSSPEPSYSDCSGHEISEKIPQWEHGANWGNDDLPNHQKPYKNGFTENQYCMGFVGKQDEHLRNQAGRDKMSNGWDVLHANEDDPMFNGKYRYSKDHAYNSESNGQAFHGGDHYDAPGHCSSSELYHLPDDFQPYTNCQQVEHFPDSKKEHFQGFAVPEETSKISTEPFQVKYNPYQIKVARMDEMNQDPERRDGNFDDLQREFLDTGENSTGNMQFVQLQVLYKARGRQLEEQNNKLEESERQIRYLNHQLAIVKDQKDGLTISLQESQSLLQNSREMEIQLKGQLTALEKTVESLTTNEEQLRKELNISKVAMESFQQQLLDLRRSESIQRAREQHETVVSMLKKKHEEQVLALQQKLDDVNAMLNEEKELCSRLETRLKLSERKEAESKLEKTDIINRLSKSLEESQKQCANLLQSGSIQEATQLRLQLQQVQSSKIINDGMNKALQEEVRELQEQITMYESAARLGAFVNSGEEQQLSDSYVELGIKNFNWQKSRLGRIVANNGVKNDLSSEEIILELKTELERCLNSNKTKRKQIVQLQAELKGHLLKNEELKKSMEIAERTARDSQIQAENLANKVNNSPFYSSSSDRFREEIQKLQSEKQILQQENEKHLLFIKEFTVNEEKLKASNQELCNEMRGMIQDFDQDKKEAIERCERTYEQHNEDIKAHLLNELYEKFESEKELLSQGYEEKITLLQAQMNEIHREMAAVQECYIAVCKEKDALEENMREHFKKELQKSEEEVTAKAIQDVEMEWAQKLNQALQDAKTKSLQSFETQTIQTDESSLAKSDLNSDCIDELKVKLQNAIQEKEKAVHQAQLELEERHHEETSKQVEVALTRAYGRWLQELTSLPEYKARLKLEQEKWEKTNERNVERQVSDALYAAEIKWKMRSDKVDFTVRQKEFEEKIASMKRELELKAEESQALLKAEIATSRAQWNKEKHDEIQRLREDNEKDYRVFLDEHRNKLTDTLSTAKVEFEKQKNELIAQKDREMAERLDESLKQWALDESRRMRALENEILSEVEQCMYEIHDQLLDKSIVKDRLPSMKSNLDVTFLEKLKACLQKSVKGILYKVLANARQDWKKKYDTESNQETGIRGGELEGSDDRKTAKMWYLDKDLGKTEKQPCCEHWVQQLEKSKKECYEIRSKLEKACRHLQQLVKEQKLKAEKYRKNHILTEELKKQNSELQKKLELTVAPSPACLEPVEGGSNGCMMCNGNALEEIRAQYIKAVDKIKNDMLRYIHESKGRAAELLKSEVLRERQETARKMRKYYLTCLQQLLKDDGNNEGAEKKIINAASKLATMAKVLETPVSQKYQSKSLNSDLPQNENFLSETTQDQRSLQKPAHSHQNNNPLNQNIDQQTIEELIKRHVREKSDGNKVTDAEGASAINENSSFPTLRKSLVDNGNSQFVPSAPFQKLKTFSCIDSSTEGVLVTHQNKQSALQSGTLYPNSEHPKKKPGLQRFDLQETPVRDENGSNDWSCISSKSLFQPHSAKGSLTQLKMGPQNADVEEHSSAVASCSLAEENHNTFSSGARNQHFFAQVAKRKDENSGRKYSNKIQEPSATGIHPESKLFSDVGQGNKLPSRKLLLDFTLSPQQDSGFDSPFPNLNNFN
UniProt P70032: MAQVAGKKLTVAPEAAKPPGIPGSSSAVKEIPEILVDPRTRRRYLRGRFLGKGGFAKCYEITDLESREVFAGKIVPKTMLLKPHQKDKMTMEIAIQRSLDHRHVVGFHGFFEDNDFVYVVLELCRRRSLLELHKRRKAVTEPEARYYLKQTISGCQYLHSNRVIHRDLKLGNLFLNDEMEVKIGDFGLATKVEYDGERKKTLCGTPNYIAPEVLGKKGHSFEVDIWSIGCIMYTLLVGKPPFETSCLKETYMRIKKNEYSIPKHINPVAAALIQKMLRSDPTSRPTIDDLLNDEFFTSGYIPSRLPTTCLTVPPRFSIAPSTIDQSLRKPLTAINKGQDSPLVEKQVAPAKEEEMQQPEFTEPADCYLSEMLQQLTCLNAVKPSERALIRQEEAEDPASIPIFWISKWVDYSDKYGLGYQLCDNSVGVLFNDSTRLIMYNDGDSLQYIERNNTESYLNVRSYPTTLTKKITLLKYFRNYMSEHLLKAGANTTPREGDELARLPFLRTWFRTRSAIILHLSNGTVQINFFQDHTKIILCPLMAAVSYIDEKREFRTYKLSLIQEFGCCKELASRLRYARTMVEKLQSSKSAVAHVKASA
UniProt P09406: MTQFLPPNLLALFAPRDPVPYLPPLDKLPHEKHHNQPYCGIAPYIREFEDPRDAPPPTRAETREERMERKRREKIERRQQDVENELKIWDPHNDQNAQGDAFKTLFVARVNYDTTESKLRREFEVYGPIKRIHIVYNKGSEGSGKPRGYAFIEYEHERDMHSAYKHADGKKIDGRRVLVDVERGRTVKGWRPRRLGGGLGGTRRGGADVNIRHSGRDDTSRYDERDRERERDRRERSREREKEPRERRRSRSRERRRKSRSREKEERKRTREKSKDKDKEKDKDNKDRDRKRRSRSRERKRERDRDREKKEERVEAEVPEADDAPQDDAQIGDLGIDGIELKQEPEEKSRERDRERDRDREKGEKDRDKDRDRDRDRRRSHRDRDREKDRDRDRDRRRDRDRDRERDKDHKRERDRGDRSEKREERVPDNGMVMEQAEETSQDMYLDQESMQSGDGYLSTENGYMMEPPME

B1: Cep44 (protein, UniProt A2RVA7 1-384)
chain: MATGDVKGCIRKLEQRLRTLNYPRDVDYTGLIKGDPSASLPIISYTFTCYSTSIAEILISFGIELTTKSDLRFIEAVYKVLRDVFNYKPILTKQQFLQCAFSERKIQIICDIVDCVVKKHKEITGQNKVKSQLVKKVVSAKDQCEVFYPEDVSVQPSVKTTQKKPLVERHAGSEFLLPTKCYSSALVEDIEEEEPTSDSEGGSHLEHEMESPFETAETTPNSEQIELLRKQLAECQEKLQRLDCVEQRLQSLETSMKGKIIIDETDWNNLLSRVLLLETEGLLQSKKTDFSVPSEFACISEQRTSSRMTNEICSNLKTKADIPESHHQSSGYSFVLSADTSPIAIDINYSSLTEDSNETTKQRMERITKMMEETSKLLKCSNNT
B2: SF3B1 (protein, UniProt O57683 1-1307)
chain: MAKVAKTHEDIEAQIREIQGKKAALDEEEGVGLDSTGYFDQEIYGGSDSRFTGYVTSIAANEQEDDDDDVSSATFEQKKPGYHAPVALLNDIPQSTEQYDPFAEHRPQKIANREDEYKQQRRKMIISPERLDPFADGGKTPDPKLNARTFKDVMQEQYLTKEEREIRQQIAEKAKSGDLKVVNGSSASSAAQPPSKRKRRWDQTGDQTPGSTPKKLSSWDQAEVTPGHTPSSLRWDETPGRAKGNETPGATPGSKIWDPTPSHTPAGVATPGRGDTPGHVTPGHSGATSSARKNRWDETPKTERDTPGHGSGWAETPRTDRGGDSIGETPTPGASKRKSRWDETPASQMGGSTPVLTPGKTPIGTPAMNMATPTPGHIMSMTPEQLQAWRWEREIDERNRPLSDEELDAMFPEGYKVLPPPAGYVPIRTPARKLTATPTPLGGLTGFHMPTEDRSMKSVSDQPSGNLPFLKPDDIQYFDKLLVDVDESTLSPEEQKERKIMKLLLKIKNGTPPMRKAALRQITDKAREFGAGPLFNQILPLLMSPTLEDQERHLLVKVIDRILYKLDDLVRPYVHKILVVIEPLLIDEDYYARVEGREIISNLAKAAGLATMISTMRPDIDNMDEYVRNTTARAFAVVASALGIPSLLPFLKAVCKSKKSWQARHTGIKIVQQIAILMGCAILPHLRSLVEIIEHGLVDEQQKVRTISALAIAALAEAATPYGIESFDSVLKPLWKGIRQHRGKGLAAFLKAIGYLIPLMDAEYANYYTREVMLILIREFQSPDEEMKKIVLKVVKQCCGTDGVEANYIKTEILPPFFKHFWQHRMALDRRNYRQLVDTTVELANKVGAAEIISRIVDDLKDEAEQYRKMVMETIEKIMGNLGAADIDHKLEEQLIDGILYAFQEQTTEDSVMLNGFGTVVNALGKRVKPYLPQICGTVLWRLNNKSAKVRQQAADLISRTAVVMKTCQEEKLMGHLGVVLYEYLGEEYPEVLGSILGALKAIVNVIGMHKMTPPIKDLLPRLTPILKNRHEKVQENCIDLVGRIADRGAEYVSAREWMRICFELLELLKAHKKAIRRATVNTFGYIAKAIGPHDVLATLLNNLKVQERQNRVCTTVAIAIVAETCSPFTVLPALMNEYRVPELNVQNGVLKSLSFLFEYIGEMGKDYIYAVTPLLEDALMDRDLVHRQTASAVVQHMSLGVYGFGCEDSLNHLLNYVWPNVFETSPHVIQAVMGALEGLRVAIGPCRMVQYCLQGLFHPARKVRDVYWKIYNSIYIGSQDALIAHYPRIYNDEKNTYIRYELDYTL
B3: DDX42 (protein, UniProt Q7ZY47 1-947)
chain: MNWNKGGSGNKRGFGFGGFAISTGKKEEPKLPQVSHSAFQSASSKYGSTSNQLPSFYKIGSKRANFDEENSYFDDEEEDSSNVDLPYIPAENSPTRQQLRSKTDSDSEEDPLEAFMAEVEDQAAKDMRKLEERDKEKANARGIRDDIEEEDDQEAYFRYMAENPTAGLVPEEEEDNLEYDSDGNPIAPTTKRIIDPLPPIDHTEIEYPPFEKNFYEEHEAITSQTPQQITELRHKLNLRVSGAAPPRLCSSFAHFGFDEQLLHQIRKSEYTQPTPIQCQGIPVALSGRDMIGIAKTGSGKTAAFIWPILVHIMDQKELQPADGPIAVIVCPTRELCQQIHSECKRFGKAYNLRSVAVYGGGSMWEQAKALQEGAEIVVCTPGRLIDHVKKKATNLQRVTYLVFDEADRMFDMGFEYQVRSIANHVRPDRQTLLFSATFRKKIEKLARDILVDPIRVVQGDIGEANEDITQVVEILPSGPEKWTWLTRRLVEFTSTGSVLVFVTKKANAEELAANLRQDDHPLGLLHGDMDQSERNKVISDFKKKSIPVLVATDVAARGLDIPSIKTVVNYDVARDIDTHTHRIGRTGRAGEKGVAYTLLTSKESNFAGDLVRNLEGANQYVSKELLDLAMQNSWFRKSRFKAGKGKKLNIGGGGLGYRERPGLGAESSEHGTGGNVMSNYEAFKPSGGAMGDRLSAMKSAFQSQYKNHFVAASASTQKTGTSSINSGAWTSAGSLSSVPSAHPPSGKLPAEAAPPPVHTAMLGFTSSGTLSSIPTGYPANISSASYPAATLFGARDGASAGTESGGRERHSDSKGRHGDSHRPSDREGYRHGDGHRHSSSSRHGERNGGEGRRESSRDGRRDSSRDGESRRDGSRDGGEGRRESSRDGEGRRESSRDGDGRRESSGDGRREVVGDDGDSRKEGTREAKTDTFAIPVPPKRKKSRWDS
B4: Cep97 (protein, UniProt Q6GPJ8 1-807)
chain: MAVAHLACDSQGSVVDLSGQGLQKLSPTLPFGNDTQTLILDKNQIIKLEHVEKCRNLVQLSVANNRLVRMMGVAKLIHLRVLNLPHNSIGYVEGLKDLVHLEWINLAGNNLKIIDQINSSTSLQHLDLSDNNISQIGDLSKLKSLKTLLLHGNNIASLRAASACLPQSLTILSLAENEIRDLNEVAFLAGLVDLEQLSIMNNPCVMATPSIPGFDYRPFIVSWCLNLKVLDGYVVSQKESLKAEWLYSQGKGRSYRLGQHIPLVQYLATVCPLTSAHGLQTEEDAKLDKILSKQRLHQKQLLHQTRSDGYLTSSTPNKRLPLSTEHHSPTHVLQTEPTVQVNNWLRSSSSEDHSYAVRNICSSPFGPPHYSSLYMEDIQTDEDKLNCSLLSSESTFMPVAPGLSPVSPTVELRVPAIKADLPVNETVIEFNKDHTELPPSETPEKPKLIPGLSAMQDDKSCCVYPVIKDENVTENIINCETAVSMESTQTSNGPTCHNLIMNCKQASVLDQDVNHINKISKAATKLQSCWRGFYARKYNPKVKDVCYEIRLSRMQEHIVFLTEEVIRLRKEKEEDRIQRILQGEAVRYLWEQVQAIQQWQNTVKLQTANSSENDLPSASNSKHANPALEELPSSPEKLNRKASPDIPDSGFHSVILNHCTMGNTEKNSSEESEYSQPSLDTGRHYNDKVPDSPADQDLTREEQSQSSKDSFTSEQDSSLLQQYLRSVEQLDETADNTSYSERTEESRPEITTCSDNSDLSCSISHFLPENSKQENIDIHSNLPSIDDGHNTPIPCDSSLLVPQPDLV
B5: POC5 (protein, UniProt Q6DFB7 1-572)
chain: MSSDEEYRESPILPKDSDHGSSVSSDLQDEYDELLRYAVVTPRFGPHFPEQNQLFTEQIKSDRFSSPKDPVQEQSLARNYSEENIPECSATSTSQRRSPPTANEEERAMSEKKSFLSGLEAFSPLHSEDLSLGGSTSSGSQVQQVRVKELPVPAENMDKVEDVLDLWSGTLKTNVMAELSKWRLTVIEQHKLEIKNQNEKHAEQISQLSSQIDKLQDHLQTYETSIQRKDEVISNLTHALEKHKEKMELMRTFTHWRLQLTEAREEDYARSLADRHYRNTLMKNAWKAWHSVIQSNWKDKIEQACRARAEEVCIELSNDYESKLTQLNSALGEARAEVQRLLAERGQFEGSMKKAFMRGVCALNMEAMSMFQGRESRMEYDPPPRREERDPSPSVTFQNPPVTSTHTSSTQHELQSALHSPVTCEPNYIHAFGPSTVSQSKEEAGAPAVISAATSASSVLSTQKLPMPRVVTSCQQKAGKIITARISARPDVSQRSSKIGSNITSMAVSPPISSIVVEKHHPVTQQTISQAAAAKYPRSALQSANSVGGRSTGQSGRVSQSHAGIHSIKVVD

Each molecule was assayed against Xenopus SART1, endogenous (Xenopus laevis (endogenous in egg extract)) (UniProt Q7ZYC1) (assay: affinity purification with mass spectrometry).

binding, binds:
APC (from UniProt P70039 1-2829)
Cep152 (from UniProt Q498G2 1-1663)
Plk1 (from UniProt P70032 1-598) (enzyme)
SNRNP70 (from UniProt P09406 1-471)
SNRPA (from UniProt P45429 1-282)
B1
B2
B3
B4
B5
